Results from PubChem BioAssay AID1159583 (ICCB-Longwood Screening Facility, Harvard Medical School, 2016).
The other results are listed elsewhere or left out. Some salts and complexes are drawn in separate pieces, as the source files them; their charges need not balance.

Experiment: hypoxia reporter signal reduction in M. tuberculosis – fluorescence, absorbance growth readout, primary screen (AID 1159583)
Details: M. tuberculosis hypoxia-regulated fluorescent reporter, measured here: M. tuberculosis growth (absorbance), stronger effect = higher value, concentration not given here

Row | Structure (SMILES) | growth inhibition [%]
1 | COc1ccccc1CNC(=O)COC(=O)C(O)(c1ccccc1)c1ccccc1 | -4.43
2 | O=[N+]([O-])c1cc([N+](=O)[O-])c(-c2cnn(-c3ccccc3)c2)c([N+](=O)[O-])c1 | 0.0124
3 | CC(C)(C)C(=O)NC(Sc1ncccn1)C(Cl)(Cl)Cl (configuration not stated) | -5.02
4 | Clc1n[nH]nc1-c1nn[nH][15n]1 | -1.39
5 | CCOP(=O)(Nc1ccc(C)cn1)OCC | 3.64
6 | O=[N+]([O-])c1cc([N+](=O)[O-])c(-n2nnc3ccccc32)c([N+](=O)[O-])c1 | 11.4
7 | O=P1(Nc2ccccn2)COc2ccccc2OC1 | -13.2
8 | O=[As](O)(c1cccs1)c1cccs1 | 16.6
9 | NS(=O)(=O)c1cccc(NC(=O)COC(=O)C(O)(c2ccccc2)c2ccccc2)c1 | -11.1
10 | O=P1(Nc2ccc(Br)cn2)COc2ccccc2OC1 | 15.1
11 | CCCOc1ccc(NP(C)(=O)Oc2ccc(Cl)cc2)cc1 (configuration not stated) | 12.3
12 | CP(=O)(Nc1ccc(SC(F)(F)F)cc1)Oc1ccccc1 (configuration not stated) | 6.06
13 | Nc1cccc([As](=O)(O)c2ccccc2)c1 | 7.81
14 | CN1CCCCC1COC(=O)C1(O)c2ccccc2CCc2ccccc21 (configuration not stated) | -3.93
15 | COc1ccccc1OP(C)(=O)Nc1c(C)cccc1C (configuration not stated) | 3.03
16 | O=P1(Nc2ncccn2)COc2ccccc2OC1 | 2.19
17 | CCCC1OP(=O)(Nc2ccccc2)OCC1CC (configuration not stated) | 24.1
18 | O=C(/C=C/c1ccccc1)OC1CN2CCC1CC2 (configuration not stated) | -2.47
19 | CCOC(=O)C(CC)C1=NC(C)(C)Cc2ccccc21.O=[N+]([O-])c1cc([N+](=O)[O-])c(O)c([N+](=O)[O-])c1 (configuration not stated) | 0.617
20 | CN(C)C1(CNC(=O)c2ccc(S(C)(=O)=O)cc2)CCCCC1 | -9.1
21 | O=[N+]([O-])c1cc([N+](=O)[O-])c(Nc2nnnn2CCO)c([N+](=O)[O-])c1 | 10.1
22 | COc1cc(C2NCCC3(OCCO3)C2(C)C)cc(OC)c1OC.O=[N+]([O-])c1cc([N+](=O)[O-])c(O)c([N+](=O)[O-])c1 (configuration not stated) | 11.1
23 | Cc1ccc(C(=O)OC2CN3CCC2CC3)cc1 (configuration not stated) | -2.84
24 | CC1CCC(C(C)C)C(OP(=O)(Nc2ccccn2)c2ccccc2)C1 (configuration not stated) | 1.47

Row | Structure (SMILES) | growth inhibition [%]
25 | Cc1nn(-c2ccccc2)c2c1P(=O)(N1CCOCC1)N(C)C(c1ccccc1)=N2 (configuration not stated) | 3.65
26 | CC1=NCCc2c1[nH]c1ccccc21.O=[N+]([O-])c1cc([N+](=O)[O-])c(O)c([N+](=O)[O-])c1 | 0.932
27 | O=[N+]([O-])c1ccc2c(c1)nnn2O | -7.56
28 | CN(C)C(=O)c1cc([N+](=O)[O-])cc2c1-c1c(cc([N+](=O)[O-])cc1[N+](=O)[O-])C2=O | 20.2
29 | CCOP1(=S)c2c(C)nn(CCC#N)c2N=C(c2ccc(F)cc2)N1C (configuration not stated) | 5.15
30 | N#CCCN(C(=O)COC(=O)C(O)(c1ccccc1)c1ccccc1)c1ccc(F)cc1 | -11.8
31 | Cc1ccc(NC(=NP(=O)(N2CCOCC2)N2CCOCC2)N2CCOCC2)cc1 | -2.4
32 | NC(=O)Nc1ccc([As](=O)(O)O)cc1 | 9.09
33 | O=C(O)COc1ccc([As](=O)(O)O)cc1[N+](=O)[O-] | -9.19
34 | Nc1ccccc1[As](=O)(O)c1ccccc1 | 9.87
35 | O=P(Nc1nccs1)(Oc1ccccc1)Oc1ccccc1 | -5.14
36 | O=P(Nc1nccs1)(c1ccccc1)c1nc2ccccc2s1 (configuration not stated) | 10.2
37 | O=C(O)c1cccc(Nc2c([N+](=O)[O-])cc([N+](=O)[O-])cc2[N+](=O)[O-])c1 | -1.69
38 | CCOP1(=S)c2c(C)nn(CCC#N)c2N=C(c2ccccc2F)N1C (configuration not stated) | -9.11
39 | CCOP(=O)(Nc1cccc2ccccc12)OCC | 4.55
40 | CCCOP(=S)(Nc1nc(N)cc(=O)[nH]1)OCCC | 15.6
41 | Cc1ccc(NCCc2c([N+](=O)[O-])cc([N+](=O)[O-])cc2[N+](=O)[O-])cc1 | 6.25
42 | Cc1cc(C)cc(OP(C)(=O)Nc2ccccn2)c1 (configuration not stated) | 14.3
43 | CP(=O)(Nc1cccc(Br)c1)Oc1ccccc1 (configuration not stated) | 11.2
44 | CC1C=CCP(=O)(Oc2ccccc2)O1 (configuration not stated) | 2.22
45 | CCOC(=O)c1ccc(NP(C)(=O)Oc2cc(C)cc(C)c2)cc1 (configuration not stated) | 0.593
46 | Cc1cc(C)cc(OP(C)(=O)Nc2ccc(C)cc2C)c1 (configuration not stated) | 0.341
47 | O=[As](O)(c1cccc(O)c1)c1cccc(O)c1 | 13.6
48 | COc1ccccc1OP(C)(=O)Nc1cccc(Br)c1 (configuration not stated) | 16.3

Row | Structure (SMILES) | growth inhibition [%]
49 | CS(=O)(=O)c1ccc(Cl)c(NC(=O)COC(=O)C(O)(c2ccccc2)c2ccccc2)c1 | 2.44
50 | O=[As](O)(O)c1cccnc1 | 1.08
51 | COc1cc(C(=O)NCC2(N3CCOCC3)CCCCC2)cc(Cl)c1OC(C)C | -0.987
52 | O=C(OC1CN2CCC1CC2)c1ccc(Cl)cc1 (configuration not stated) | -7.44
53 | CCC(CO)(C(=O)OC1CN2CCC1CC2)c1ccccc1 (configuration not stated) | -4.19
54 | COc1cc(I)ccc1[As](=O)(O)O | -2.64
55 | COc1ccc2nc(NP(=O)(c3ccccc3)c3ccccc3)sc2c1 | 6.54
56 | O=P1(N(CCCl)CCCl)Nc2ccccc2N1 | 8.89
57 | Cc1cc(=O)[nH]c(N[N+](=O)[O-])n1 | 12.8
58 | CCN(CC)CCCOC(=O)C(O)(c1ccccc1)c1ccccc1 | 5.91
59 | Cc1c2c(nc3ccccc13)SC(C(Cl)Cl)C2 (configuration not stated) | 8.72
60 | Cc1cc(C)cc(OP(C)(N)=O)c1 (configuration not stated) | 2.47
61 | COc1ccc(OP(C)(=O)Nc2cccc(F)c2)cc1 (configuration not stated) | -7.35
62 | O=[N+]([O-])c1cc([N+](=O)[O-])c(-c2ccn[nH]2)s1 | 32.3
63 | CC(C)NC(=O)NP(=O)(Oc1ccccc1)Oc1ccccc1 | 9.85
64 | COc1ccccc1OP(C)(=O)Nc1cc(Cl)ccc1C (configuration not stated) | 6.05
65 | O=C(OC1CN2CCC1CC2)c1cccc2[nH]cnc12 (configuration not stated) | 10.4
66 | Cc1ccc(NP(C)(=O)Oc2ccccc2)c(C)c1 (configuration not stated) | 12.2
67 | CC(C)c1ccc(OP(=O)(Nc2ccccn2)Oc2ccccc2F)cc1 (configuration not stated) | -5.02
68 | COc1ccccc1OP(C)(=O)Nc1ccc(C)cc1 (configuration not stated) | -8.56
69 | ClCCSc1nnc(-c2cccnc2)o1 | 15.6
70 | COc1ccc2c(c1O)-c1c(O)c(OC)cc3c1C(C2)[N+](C)(C)CC3.O=[N+]([O-])c1cc([N+](=O)[O-])c([O-])c([N+](=O)[O-])c1[O-] (configuration not stated) | 0.308
71 | CCOC(=O)c1ccc(NP(C)(=O)Oc2ccccc2)cc1 (configuration not stated) | -2.14
72 | O=[N+]([O-])c1ccc2c(c1)C=Nc1ccccc1O2 | -5.14
